In PubChem BioAssay AID1508600 (Functional Genomics Laboratory (NCATS/FGL), 2020):
Out of some 53,000 sequences screened, about 3,700 (7%) were called active.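 The calls were made as follows: active = gene knockdowns whose robust z-score for IL-1 alpha signal is at least 2 or at most -2, so actives lie on both sides; inactive = the rest.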 The list shows a part of the results.

Assay: Components of the Cytosolic LPS Sensing Pathway: Gene Identification via Genome-wide siRNA Screen;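 also: robust z of the log signal after scaling to non-targeting control siRNA wells of the plate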
Conditions: RAW264.7 macrophages, IL-1a HTRF, actives lie on both sides, screened at 100 nM (by protocol), cells primed 5 h with Pam3CSK4 first
How it was run: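 RAW264.7; siRNA 100 nM final, RNAiMAX, 48h 37 degrees C; Pam3CSK4 5 h; LipidA + TransIT-TKO 24 h; IL-1a HTRF; CellTiter-Glo viability; robust z vs negative-control median.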

Sequence | z-score
GGUGAAGCUUGAGAUACUATT against Gcnt1 | inactive: -0.164
CCGGAGGUUCCAACAAACUTT against Dlx1 | inactive: -0.591
GGGUGUCGAUUAUAACAGATT against Hnf4a | inactive: 0.238
CCUAUCAAACUGACUUCAUTT against Castor2 | inactive: 0.309
GUAGUGAAAGCUUUUGGGUTT against Vmn1r226 | inactive: -0.881
GGAUUAGCUGCAUGAAAGATT against Samt4 | inactive: -1.25
CCAAGACCCUAAUAUCUAUTT against Ccdc47 | inactive: -0.216
GGACUACGGUGAUGAUGGATT against Dpt | inactive: -1.36
GGCGGAAAUCAAAGGAGGATT against Dnmt1 | inactive: 0.791
GCCUUACAACAAGCAACACTT against Esrp1 | inactive: -0.385
GCAUCACGCUAUAACCAUUTT against Slc22a17 | inactive: -0.244
GGACCCAGAGAAGAUCAAATT against Etfrf1 | inactive: 0.514
GGGAAGUUCAUAUUGAUCCTT against Gsdma | inactive: 0.691
GGUGUGUGUAUGGUAGGACTT against Dpcd | inactive: -0.614
GCUCUGCCUUCAGAUGACGTT against Olfr173 | inactive: -0.26
CGUUAACCACAGUGAGAGATT against Nectin4 | inactive: -0.376
CGAGAGUUCUGUGACCAUGTT against Olfr1165-ps | inactive: 1.54
GGAUCAAGAAUUAAUGUCUTT against Nes | inactive: -0.349
GGAAUAAAUACAGGUUCUCTT against Chuk | inactive: 0.0987
GGGUACAAGAGUCUGUUCUTT against Fkrp | inactive: 0.64
GGAACGAGGAGUCAAUAGATT against Ecscr | inactive: -1.11
GGUCUUCUCUCACCUUUUATT against Pstpip2 | inactive: -1.47

Copied from the list:
GGCGGAAAUCAAAGGAGGATT against Dnmt1 | z-score: inactive: 0.791
CCAAGACCCUAAUAUCUAUTT against Ccdc47 | z-score: inactive: -0.216
GGUGUGUGUAUGGUAGGACTT against Dpcd | z-score: inactive: -0.614

The listing continues.

Sequence | z-score
GGUCACGAUUCUGUCAGACTT against Ctnnal1 | active: 3.57
GCAACUUUGGCACUAUCCGTT against Rnf123 | inactive: 0.788
GGAACUGGAAUUUAUGAUATT against Btla | inactive: -0.26
GCACCAGUGUUACCACAGUTT against Foxc1 | inactive: -1.01
GGGUGUAAUAGUUACAAGATT against Zfp189 | inactive: 0.0189
GGACUUCACCAUCCACGAATT against Pgap2 | inactive: 0.622
CGAGCACUCAAUGUGUUGGTT against Abcb6 | inactive: -1.03
GGAGAGUGGGAACCACUACTT against Prkaca | inactive: -1.15
GUCUUUGGCUCGGUUUGCGTT against Dmrta2 | inactive: 1.04
GGGUUAGACAUCUUUCUGCTT against Olfr57 | inactive: -0.27
GGAUGGUGACAUGAAAAUCTT against Ifng | inactive: 1.14
CCCUUACUAGAAAAAAGACTT against Nap1l2 | inactive: -0.45
GGGAGUCCUGAGUUUCAAATT against Lypd4 | inactive: 0.21
GCCCUUUUCAUUCUCCAGATT against Zdhhc25 | active: 4.39
GGGCUUCUAACAAUACUUGTT against Frat2 | inactive: 0.574
AAGGAAGACAGUCAUAGCUTT against Vmn1r172 | inactive: 0.168
GGAGGAAAUAUGUUAACUATT against Atp6ap2 | inactive: 1.22
GCAUUCUGUUCGAGCUCCATT against Tmem39b | inactive: 0.984
CCGUUUUUAAAGCGGGCCATT against Tmtc1 | inactive: -0.266
GGAGGAGACUAUUUUCGCCTT against Mypop | inactive: -1.86
GGUUAUCUAUGGUCGGAAGTT against Jmjd8 | inactive: 0.115
GGAAGUCCAACUUCUUCCATT against Ebf4 | inactive: -0.153

Sequence | z-score
GCCUGACCACCAACUUAUATT against Mast1 | inactive: -0.527
GUCAGAUGCUGUAAGAUAATT against Defb4 | inactive: -0.223
CCUCAGUAUCUGUUUUCCGTT against Gnat2 | inactive: 0.0243
GCCUUAACUGACAAAAUACTT against Il1bos | inactive: -1.31
GGUUUUACCCGGUAAGUCCTT against Bcan | inactive: -0.225
GGGCCUCCAUCCUACUAUGTT against Grina | inactive: 1.65
GGAUGCUACAGGAAGAGAATT against Ccdc51 | inactive: 1.94
GGUAGACAUUCCUAAGCCCTT against Ddx21 | inactive: 0.149
GGUCCUGGACAAGAGCAGUTT against Bcl11b | inactive: 0.435
GCCUGGUGUUGUGCUAUUUTT against Atf3 | inactive: -0.854
GGAUGUGUAGUGCAAUUACTT against Olfr993 | inactive: -0.906
GGAUGAUGAGAGAAACAAATT against Jak1 | active: 3.78
GGAAUGUGAAGGAUGUUCUTT against Nhlh1 | inactive: 0.0347
GGAAGUGUGACUUGAUUGCTT against Tango6 | inactive: -0.0308
GGCAUUAAAGACCUGUUAATT against Kpnb1 | inactive: -0.887
GGAAGAAGAAGUUAUUGUGTT against Ly6g2 | inactive: 0.0348
GGUUGUAGAACAUGAGUUATT against Fktn | inactive: -0.309
GGACAGACUGUGAUUCCUCTT against Bscl2 | inactive: -1.02
CCUCGUUCCUGAUAACCAUTT against 0610010K14Rik | inactive: -0.0752
GCUUUUACAAUUCAGGCAGTT against Naalad2 | inactive: -0.326
GGAUCAUUUGUUAAUGUACTT against Ddx3y | inactive: 0.0896
GGAGAUGUGUUGAGUUUUCTT against Abcg2 | active: 4.47

Sequence | z-score
GGAUGACUUCUGUCUUCUUTT against Slc25a45 | inactive: -0.348
CGGGUCUCAGUCUUUCCUATT against Plekhs1 | inactive: 0.26
GCACGUCUUAAAACAUUUATT against Actr6 | inactive: 1.7
GUGUGGAUAGCUGUAAACGTT against Tcl1b5 | inactive: -1.2
GGUAACUCUGCUGGGAUUCTT against Olfr444 | inactive: 1.11
GCGAAUUCGAAAGCUAUGATT against Arhgef10 | active: -2.19
CCCUAUCAUUACCAAGCUGTT against Hspa8 | inactive: 0.045
GGACACUCUACGUAUCUCATT against Tnfrsf1b | inactive: -1.16
GGCUCACGCACUGACUAUUTT against Osgepl1 | inactive: -0.074
GGGAUCCUAACAUCAGGGATT against Ly6c1 | inactive: -1.19
GUUUUAGGCAACCUUGGGUTT against Olfr1038-ps | inactive: -0.14
CCUAUGGUGGUGAGAGGACTT against Fbxl18 | inactive: -0.227
GCACUUAUUCUAGAGGAGATT against Appbp2 | inactive: -0.291
GGACAAUGAACUGAUUACCTT against Ap1s2 | inactive: 0.992
GGUUCCAUGUUCAGAAUUUTT against Alg9 | active: 2.04
GGUGGCUUUAGGGAACAUUTT against Dctn3 | inactive: 0.369
GGACUUCAACCUGCUGUAUTT against Kctd15 | inactive: 1.53
GGUUUGGUAUCAUGUAUGUTT against Ddx1 | inactive: 0.864
GGGCUAUCGCUGCAUUAUCTT against Cbs | inactive: -1.01
GGGUCUCUUACAAAGUCCATT against Msrb2 | inactive: -0.254
GGAAUAUUGUCUUGAAUGATT against Fasl | inactive: 0.615
GGCUGGAUAUAUGGUGUACTT against Prodh2 | inactive: 1.74

Sequence | z-score
CCAUCGAGUAAAGUUUGAATT against Grxcr1 | inactive: -0.0846
GGAUUCUUCUUCUCAGACGTT against Ciz1 | inactive: 0.701
GCAAGCAUGUGAGAGGGCUTT against Anapc10 | inactive: 0.98
GCAAAUUCACCGGAAAAUGTT against Sorbs3 | inactive: 1.04
GGUCAAGCAGCUGACCCAATT against Elfn1 | inactive: -0.643
CCAAUGGUUUAAGCCUAGCTT against Stra6l | inactive: -0.553
GGUUUUGGCUCGAAGGAAATT against Tead2 | inactive: -0.31
GGAUUUUGUUGGAACAGAATT against Gna15 | inactive: -0.236
GGACAUUCGAGGAGAGACCTT against Rdh13 | inactive: 0.106
GCAUUUGGGCAACGAGAUGTT against Nr5a1 | inactive: -1.3
GCUAGUCAUGCUACGGAAUTT against Aftph | inactive: 0.601
CCUGGAUUUUUCCAAACAATT against Ost4 | inactive: -1.32
CCAACUCUAAUAAUAACAGTT against Slc22a26 | active: 3.31
GGCGCAGCAAAUUCAAUUUTT against Shmt2 | inactive: 0.0628
GGCUGUGAUCAAAGAACAGTT against Bbs4 | inactive: 0.507
GGUAAAUUGUCAGAGUUUUTT against Phka1 | inactive: 0.83
CCCGUUCAAGCAAUUACAUTT against G2e3 | inactive: -1.05
CGGUUAGAUGAGCUUGAGATT against Smad2 | inactive: -0.725
CGUUACCCUGGAUUCCGAUTT against Tex47 | inactive: 0.731
